Assay results as given in the supplement of paper PMC10849652.
This is one part of the list.

By UniProt entry, the sequences of proteins in these tests, tags left out. Where a name states a change or a piece, a line headed by the entry shows the natural chain unless it says otherwise.
UniProt Q9H0U3: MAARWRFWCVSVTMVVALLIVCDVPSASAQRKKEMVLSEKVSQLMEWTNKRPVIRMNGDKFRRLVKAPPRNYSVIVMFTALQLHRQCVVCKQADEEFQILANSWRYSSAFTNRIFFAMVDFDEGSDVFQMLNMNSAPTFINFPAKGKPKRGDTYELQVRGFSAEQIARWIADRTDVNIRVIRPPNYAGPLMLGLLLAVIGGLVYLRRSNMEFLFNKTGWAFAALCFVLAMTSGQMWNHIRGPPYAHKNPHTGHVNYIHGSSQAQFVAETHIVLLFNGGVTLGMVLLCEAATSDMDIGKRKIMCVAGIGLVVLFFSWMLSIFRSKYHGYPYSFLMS
UniProt Q9BQ69: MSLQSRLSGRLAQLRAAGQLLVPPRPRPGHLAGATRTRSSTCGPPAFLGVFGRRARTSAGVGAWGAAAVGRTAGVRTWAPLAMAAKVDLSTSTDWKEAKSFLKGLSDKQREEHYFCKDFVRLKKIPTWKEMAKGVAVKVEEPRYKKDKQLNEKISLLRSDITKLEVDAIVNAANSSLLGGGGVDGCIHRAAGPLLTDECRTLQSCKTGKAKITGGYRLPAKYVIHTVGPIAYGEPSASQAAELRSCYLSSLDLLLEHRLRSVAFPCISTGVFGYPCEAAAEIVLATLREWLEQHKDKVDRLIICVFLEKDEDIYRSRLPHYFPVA
UniProt Q5U5X0: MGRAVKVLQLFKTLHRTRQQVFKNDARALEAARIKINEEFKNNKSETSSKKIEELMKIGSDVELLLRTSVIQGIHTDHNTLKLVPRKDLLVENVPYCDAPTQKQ
UniProt Q66K74: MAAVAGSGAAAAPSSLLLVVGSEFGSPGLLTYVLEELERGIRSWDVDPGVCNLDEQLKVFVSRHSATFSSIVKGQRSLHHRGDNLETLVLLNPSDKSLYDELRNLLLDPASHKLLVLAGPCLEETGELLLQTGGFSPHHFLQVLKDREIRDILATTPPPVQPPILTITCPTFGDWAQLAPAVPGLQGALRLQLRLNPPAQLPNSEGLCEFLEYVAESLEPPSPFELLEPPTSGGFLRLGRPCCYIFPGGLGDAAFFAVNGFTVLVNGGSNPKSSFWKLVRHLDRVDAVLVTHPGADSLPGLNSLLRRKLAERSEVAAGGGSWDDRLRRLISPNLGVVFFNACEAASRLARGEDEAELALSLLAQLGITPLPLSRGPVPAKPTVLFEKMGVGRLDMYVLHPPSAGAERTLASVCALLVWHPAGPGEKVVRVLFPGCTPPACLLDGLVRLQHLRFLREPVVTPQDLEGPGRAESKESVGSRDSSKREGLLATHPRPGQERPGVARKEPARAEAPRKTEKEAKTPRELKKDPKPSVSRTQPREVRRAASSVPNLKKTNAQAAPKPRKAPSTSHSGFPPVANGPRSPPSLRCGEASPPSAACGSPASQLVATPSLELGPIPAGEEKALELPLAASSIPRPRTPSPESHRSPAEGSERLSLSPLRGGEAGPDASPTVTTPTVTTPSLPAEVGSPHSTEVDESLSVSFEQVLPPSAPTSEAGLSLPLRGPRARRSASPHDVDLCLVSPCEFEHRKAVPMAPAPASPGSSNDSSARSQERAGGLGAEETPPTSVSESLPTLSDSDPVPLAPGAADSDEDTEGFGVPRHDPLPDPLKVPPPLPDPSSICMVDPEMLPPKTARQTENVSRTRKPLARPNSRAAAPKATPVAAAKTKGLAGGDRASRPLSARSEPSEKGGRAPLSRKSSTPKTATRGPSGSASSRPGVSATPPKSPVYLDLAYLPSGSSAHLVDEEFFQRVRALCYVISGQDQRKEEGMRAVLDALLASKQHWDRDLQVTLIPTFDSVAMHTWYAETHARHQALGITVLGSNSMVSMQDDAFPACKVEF
UniProt Q9NTJ4: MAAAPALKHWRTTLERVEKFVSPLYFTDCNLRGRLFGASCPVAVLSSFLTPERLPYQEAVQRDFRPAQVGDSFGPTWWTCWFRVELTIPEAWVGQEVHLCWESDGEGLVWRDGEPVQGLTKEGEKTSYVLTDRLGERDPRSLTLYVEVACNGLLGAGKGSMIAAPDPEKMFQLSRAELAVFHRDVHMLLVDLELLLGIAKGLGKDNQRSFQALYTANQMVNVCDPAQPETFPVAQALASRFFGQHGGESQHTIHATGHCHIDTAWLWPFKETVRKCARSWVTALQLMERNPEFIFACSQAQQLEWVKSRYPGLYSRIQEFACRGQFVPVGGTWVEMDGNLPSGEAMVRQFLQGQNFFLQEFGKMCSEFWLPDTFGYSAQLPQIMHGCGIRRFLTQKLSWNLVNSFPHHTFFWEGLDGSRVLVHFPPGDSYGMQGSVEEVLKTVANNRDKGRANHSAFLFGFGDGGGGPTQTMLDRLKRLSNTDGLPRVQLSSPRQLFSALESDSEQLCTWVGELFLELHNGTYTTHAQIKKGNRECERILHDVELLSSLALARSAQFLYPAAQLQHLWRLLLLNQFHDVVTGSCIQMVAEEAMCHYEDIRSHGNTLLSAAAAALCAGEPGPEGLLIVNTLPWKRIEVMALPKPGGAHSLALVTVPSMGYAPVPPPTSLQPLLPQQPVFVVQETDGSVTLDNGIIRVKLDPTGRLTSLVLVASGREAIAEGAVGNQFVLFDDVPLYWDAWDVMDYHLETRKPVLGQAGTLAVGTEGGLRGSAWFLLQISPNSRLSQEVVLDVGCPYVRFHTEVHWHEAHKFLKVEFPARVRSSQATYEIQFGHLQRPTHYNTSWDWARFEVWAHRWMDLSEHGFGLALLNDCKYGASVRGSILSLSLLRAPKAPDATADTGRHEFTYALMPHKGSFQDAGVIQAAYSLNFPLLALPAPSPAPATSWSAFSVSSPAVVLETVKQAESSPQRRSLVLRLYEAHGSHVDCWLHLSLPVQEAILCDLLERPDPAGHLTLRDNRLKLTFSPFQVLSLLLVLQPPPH
UniProt Q9Y4Z0: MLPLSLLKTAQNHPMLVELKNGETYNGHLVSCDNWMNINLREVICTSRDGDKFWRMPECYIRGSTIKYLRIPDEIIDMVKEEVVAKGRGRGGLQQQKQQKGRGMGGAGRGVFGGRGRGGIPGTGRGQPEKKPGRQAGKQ
UniProt Q9UK45: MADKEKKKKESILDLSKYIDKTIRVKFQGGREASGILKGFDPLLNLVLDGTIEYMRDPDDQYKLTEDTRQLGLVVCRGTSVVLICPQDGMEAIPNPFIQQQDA
UniProt O95777: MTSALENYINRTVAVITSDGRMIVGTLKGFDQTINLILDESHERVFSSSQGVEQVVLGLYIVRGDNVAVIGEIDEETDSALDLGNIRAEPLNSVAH
UniProt Q9NQ48: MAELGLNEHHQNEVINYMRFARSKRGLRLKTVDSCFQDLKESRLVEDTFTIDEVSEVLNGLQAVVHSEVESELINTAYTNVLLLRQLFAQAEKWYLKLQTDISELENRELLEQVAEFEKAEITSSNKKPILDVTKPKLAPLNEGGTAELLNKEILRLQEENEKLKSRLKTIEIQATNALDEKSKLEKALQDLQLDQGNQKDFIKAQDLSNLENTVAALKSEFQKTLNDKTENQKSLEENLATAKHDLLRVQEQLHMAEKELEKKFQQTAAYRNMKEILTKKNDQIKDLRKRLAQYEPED
UniProt Q96S90: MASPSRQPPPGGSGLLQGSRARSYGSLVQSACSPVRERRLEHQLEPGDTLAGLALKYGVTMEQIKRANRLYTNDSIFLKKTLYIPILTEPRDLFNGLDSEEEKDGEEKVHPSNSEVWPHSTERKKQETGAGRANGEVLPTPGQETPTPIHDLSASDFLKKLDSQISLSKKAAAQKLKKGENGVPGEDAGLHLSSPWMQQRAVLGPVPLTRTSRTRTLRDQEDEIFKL
UniProt O00754: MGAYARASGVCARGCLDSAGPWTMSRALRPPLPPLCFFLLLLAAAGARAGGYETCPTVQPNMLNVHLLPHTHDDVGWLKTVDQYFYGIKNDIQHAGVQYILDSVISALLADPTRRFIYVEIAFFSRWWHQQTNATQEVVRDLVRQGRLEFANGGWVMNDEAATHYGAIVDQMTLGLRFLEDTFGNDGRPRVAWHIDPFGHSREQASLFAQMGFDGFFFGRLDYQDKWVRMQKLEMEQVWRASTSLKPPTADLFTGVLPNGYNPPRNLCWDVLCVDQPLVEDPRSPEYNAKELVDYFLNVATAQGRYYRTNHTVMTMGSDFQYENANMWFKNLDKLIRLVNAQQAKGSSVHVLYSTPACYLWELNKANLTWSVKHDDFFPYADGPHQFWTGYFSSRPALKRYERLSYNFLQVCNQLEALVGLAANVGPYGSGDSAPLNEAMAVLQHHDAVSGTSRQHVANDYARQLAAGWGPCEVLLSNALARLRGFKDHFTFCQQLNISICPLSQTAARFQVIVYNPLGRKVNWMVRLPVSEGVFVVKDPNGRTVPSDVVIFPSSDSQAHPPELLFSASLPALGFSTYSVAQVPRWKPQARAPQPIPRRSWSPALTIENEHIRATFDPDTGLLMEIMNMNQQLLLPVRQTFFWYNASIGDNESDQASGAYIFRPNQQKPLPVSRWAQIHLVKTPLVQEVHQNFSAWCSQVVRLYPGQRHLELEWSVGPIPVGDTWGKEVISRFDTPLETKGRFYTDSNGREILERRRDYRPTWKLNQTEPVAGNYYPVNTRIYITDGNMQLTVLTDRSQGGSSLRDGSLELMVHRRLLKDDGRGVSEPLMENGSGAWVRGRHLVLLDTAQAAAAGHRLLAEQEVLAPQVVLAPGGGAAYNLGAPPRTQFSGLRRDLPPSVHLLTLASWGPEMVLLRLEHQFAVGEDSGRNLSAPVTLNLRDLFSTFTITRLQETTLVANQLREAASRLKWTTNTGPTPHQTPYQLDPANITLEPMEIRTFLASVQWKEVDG
UniProt Q15691: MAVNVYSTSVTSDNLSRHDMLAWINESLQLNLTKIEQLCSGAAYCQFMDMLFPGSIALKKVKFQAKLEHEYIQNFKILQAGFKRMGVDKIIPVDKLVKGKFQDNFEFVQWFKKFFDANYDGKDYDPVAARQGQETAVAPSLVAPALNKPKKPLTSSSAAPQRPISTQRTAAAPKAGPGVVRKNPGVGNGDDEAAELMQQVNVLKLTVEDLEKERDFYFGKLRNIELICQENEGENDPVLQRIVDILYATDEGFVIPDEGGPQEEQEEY
UniProt P02788: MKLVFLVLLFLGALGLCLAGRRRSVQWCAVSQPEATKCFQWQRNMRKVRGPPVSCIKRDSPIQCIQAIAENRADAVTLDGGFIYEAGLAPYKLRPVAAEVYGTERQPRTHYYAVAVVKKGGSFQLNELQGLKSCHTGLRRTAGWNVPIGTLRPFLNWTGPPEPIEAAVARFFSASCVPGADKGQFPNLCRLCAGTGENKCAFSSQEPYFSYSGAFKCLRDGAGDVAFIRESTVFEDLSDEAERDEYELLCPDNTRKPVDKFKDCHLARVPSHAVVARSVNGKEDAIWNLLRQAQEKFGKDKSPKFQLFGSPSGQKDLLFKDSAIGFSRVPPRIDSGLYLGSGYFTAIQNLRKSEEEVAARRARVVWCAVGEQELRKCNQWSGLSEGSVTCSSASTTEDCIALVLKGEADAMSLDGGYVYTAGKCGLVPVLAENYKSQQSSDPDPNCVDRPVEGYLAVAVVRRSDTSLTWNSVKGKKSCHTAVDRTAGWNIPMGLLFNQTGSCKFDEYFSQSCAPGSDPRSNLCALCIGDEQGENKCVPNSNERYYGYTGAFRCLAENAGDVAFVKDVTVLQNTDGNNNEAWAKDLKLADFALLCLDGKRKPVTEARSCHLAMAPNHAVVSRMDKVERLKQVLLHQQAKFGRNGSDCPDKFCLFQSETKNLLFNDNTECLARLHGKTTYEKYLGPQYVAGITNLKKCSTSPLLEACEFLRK
UniProt O15479: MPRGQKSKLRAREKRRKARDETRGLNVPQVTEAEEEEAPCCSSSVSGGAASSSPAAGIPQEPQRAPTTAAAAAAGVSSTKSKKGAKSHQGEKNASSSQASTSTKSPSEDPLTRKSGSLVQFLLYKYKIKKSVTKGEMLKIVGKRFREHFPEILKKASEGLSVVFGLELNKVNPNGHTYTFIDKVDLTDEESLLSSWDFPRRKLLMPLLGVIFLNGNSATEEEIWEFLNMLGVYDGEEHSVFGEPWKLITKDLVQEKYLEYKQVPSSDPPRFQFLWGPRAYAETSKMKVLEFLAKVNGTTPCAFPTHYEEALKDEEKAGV

compound: CN(C)CC(=O)Nc1ccc2[nH]c(=O)c3ccccc3c2c1; assay: log2 fold change, soluble protein after heating vs DMSO (PISA); higher = thermal stabilisation; K562 cells, 10 uM, 30 min; active = over 0.2 and 3.5 SD of the protein, either way, in both replicates (recomputed)
Summary of the method: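 K562 cells (2×10^6 cells/mL) were treated with 10 μM compound for 30 min, and aliquots were heated for 3 min over 48°C-58°C. Pooled aliquots were extracted in PBS with 0.5% NP-40 at 4°C, and the supernatant after 21,000xg for 90 min was measured by TMTpro 16plex LC-MS/MS with channel sums equalised. Reported thermal stability, relative to control samples and from duplicates, is a log2 fold change.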

log2 fold change, inactive:
MAGT1 (UniProt Q9H0U3) -0.006
LRRFIP2 (UniProt Q9Y608) 0
MAN2A1 (UniProt Q16706) 0.018
MAPRE2 (UniProt Q15555) 0.102
MACROD1 (UniProt Q9BQ69) 0.122
LYRM7 (UniProt Q5U5X0) 0.036
MAGEC1 (UniProt O60732) 0.028
MAP1S (UniProt Q66K74) -0.003
MAN2C1 isoform 4 (UniProt Q9NTJ4) -0.052
LSM4 (UniProt Q9Y4Z0) -0.033
LSM7 (UniProt Q9UK45) -0.046
LSM8 (UniProt O95777) -0.007
MAP2K4 isoform 2 (UniProt P45985) 0.021
MAN2A2 (UniProt P49641) -0.013
LZTFL1 (UniProt Q9NQ48) -0.009
MACF1 (UniProt H3BQK9) -0.007
LYSMD1 (UniProt Q96S90) 0.039
MAN2B1 (UniProt O00754) -0.011
MAP1B (UniProt P46821) -0.046
MAPRE1 (UniProt Q15691) 0.003
MACF1 (UniProt Q9UPN3) 0.017
LTF (UniProt P02788) -0.015
MAGEB2 (UniProt O15479) -0.132

Random excerpt: 2 entries already listed, in no set order.
log2 fold change, inactive:
MAP1B (UniProt P46821) -0.046
MAPRE1 (UniProt Q15691) 0.003
